Laboratory results from patent US20060177894A1.
No constants are given. Whether binding was seen depends on the method and setting. Some binding calls cover weakened binding; strength is not graded here.

Amino acid sequences for entries named in this document (tags omitted). Residues count along the entry.
UniProt P16235, residues 27-700: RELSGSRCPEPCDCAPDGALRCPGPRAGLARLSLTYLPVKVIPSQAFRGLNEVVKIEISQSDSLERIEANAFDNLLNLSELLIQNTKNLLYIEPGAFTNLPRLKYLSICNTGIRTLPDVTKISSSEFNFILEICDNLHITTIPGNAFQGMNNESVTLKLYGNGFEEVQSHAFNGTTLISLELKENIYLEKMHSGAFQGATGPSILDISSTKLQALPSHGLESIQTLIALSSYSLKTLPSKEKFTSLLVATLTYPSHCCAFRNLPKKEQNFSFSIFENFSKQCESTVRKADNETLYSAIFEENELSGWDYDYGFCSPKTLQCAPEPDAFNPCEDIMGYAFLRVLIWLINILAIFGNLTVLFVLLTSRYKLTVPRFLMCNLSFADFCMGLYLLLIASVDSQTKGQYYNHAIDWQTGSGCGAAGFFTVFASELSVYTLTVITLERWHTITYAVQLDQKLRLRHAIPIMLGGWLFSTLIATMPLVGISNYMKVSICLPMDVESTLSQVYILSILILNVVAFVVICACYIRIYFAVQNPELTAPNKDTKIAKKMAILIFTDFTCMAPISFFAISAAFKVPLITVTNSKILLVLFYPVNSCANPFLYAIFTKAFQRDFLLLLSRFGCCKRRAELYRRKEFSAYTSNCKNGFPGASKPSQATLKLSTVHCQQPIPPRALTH

Target: rat lutropin receptor (LHR) (rat) (UniProt P16235)
Assay: LHR assays

binding, binds:
hCG-αCTδ116/135,138C + hCG β-subunit analog with cysteine in place of Arg94 (from UniProt P0DN86 21-165) (ligand)

Target: rat lutropin receptor (LHR) (rat) (UniProt P16235)
Assay: LHR binding and signaling assays

binding, binds:
hCG-αCTδ116/135,138C + hCG β-subunit analog with cysteine in place of Thr97 (from UniProt P0DN86 21-165) (ligand), hCG-αCTδ116/135,138C + hCG β-subunit analog with cysteine in place of Ser96 (from UniProt P0DN86 21-165) (ligand), hCG-αCTδ116/135,138C + hCG β-subunit analog with cysteine in place of Thr98 (from UniProt P0DN86 21-165) (ligand), hCG-αK44R (from UniProt P0DN86 21-165) (ligand), hCG-αK44A (from UniProt P0DN86 21-165) (ligand)
